Experimental data reported in paper PMC10714978.
These are yes or no findings as the source states them, for the method shown. Binding seen in cells or lysates may run through a third protein. Some binding calls cover weakened binding; strength is not graded here.

Sequences of proteins named here, by UniProt entry; tags and fusion partners are left off.
UniProt Q99836: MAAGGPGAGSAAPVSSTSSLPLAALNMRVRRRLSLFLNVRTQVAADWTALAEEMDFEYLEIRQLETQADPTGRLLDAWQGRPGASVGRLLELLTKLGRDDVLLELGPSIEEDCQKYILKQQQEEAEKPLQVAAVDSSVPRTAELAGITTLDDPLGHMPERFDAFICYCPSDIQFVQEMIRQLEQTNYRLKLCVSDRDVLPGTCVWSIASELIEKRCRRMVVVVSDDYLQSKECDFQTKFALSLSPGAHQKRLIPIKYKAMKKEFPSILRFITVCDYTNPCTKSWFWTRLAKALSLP
UniProt Q13191: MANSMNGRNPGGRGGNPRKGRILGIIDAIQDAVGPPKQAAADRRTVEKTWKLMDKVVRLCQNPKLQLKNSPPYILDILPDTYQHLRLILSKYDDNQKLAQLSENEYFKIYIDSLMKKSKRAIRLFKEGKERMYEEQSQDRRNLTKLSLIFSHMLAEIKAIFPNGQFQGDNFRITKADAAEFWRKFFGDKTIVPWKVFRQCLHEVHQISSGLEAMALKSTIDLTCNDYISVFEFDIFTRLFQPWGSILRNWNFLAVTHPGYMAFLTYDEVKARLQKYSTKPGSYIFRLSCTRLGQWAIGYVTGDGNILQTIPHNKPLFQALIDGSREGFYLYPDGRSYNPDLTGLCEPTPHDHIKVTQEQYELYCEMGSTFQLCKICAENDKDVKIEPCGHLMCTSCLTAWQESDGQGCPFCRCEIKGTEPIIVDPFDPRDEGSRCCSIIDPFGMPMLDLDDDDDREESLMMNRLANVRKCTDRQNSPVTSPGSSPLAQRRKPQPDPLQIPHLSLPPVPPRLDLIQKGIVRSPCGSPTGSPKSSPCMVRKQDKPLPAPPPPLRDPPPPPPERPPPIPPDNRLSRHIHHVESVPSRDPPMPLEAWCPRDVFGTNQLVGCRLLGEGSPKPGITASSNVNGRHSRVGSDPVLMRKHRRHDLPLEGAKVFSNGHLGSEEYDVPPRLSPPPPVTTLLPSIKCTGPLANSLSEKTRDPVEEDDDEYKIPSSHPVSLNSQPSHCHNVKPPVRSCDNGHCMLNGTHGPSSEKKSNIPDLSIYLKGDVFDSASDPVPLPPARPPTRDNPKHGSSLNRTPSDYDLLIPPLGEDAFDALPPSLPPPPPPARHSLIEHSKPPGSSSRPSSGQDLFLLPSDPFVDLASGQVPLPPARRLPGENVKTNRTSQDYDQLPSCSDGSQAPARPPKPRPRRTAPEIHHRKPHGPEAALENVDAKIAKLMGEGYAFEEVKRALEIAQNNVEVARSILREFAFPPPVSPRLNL

Target: MyD88-HA, expressed from pcDNA3.1(+)-MyD88-HA (UniProt Q99836)
Test: co-IP; COS7 cells transfected 48 h with pcDNA3.1(+)-MyD88-HA alone or together with pcDNA3.1(+)-Cbl-b-3×Flag; lysate incubated with anti-HA antibody 2 h at 4°C, protein A-agarose overnight at 4°C; Western blot with anti-Flag

binding: binds
Substance: Cbl-b-3×FLAG, expressed from pcDNA3.1(+)-Cbl-b-3×FLAG (from UniProt Q13191 1-982)
